Results are given in words; binding and its absence hold for the method and conditions named. Binding seen in cells or lysates may run through a third protein. Binding can be weak; no strength is given.

In this assay the target is T1, P2 × 7R (rat (endogenous in amygdala tissue)) (UniProt Q64663).
T1 sequence: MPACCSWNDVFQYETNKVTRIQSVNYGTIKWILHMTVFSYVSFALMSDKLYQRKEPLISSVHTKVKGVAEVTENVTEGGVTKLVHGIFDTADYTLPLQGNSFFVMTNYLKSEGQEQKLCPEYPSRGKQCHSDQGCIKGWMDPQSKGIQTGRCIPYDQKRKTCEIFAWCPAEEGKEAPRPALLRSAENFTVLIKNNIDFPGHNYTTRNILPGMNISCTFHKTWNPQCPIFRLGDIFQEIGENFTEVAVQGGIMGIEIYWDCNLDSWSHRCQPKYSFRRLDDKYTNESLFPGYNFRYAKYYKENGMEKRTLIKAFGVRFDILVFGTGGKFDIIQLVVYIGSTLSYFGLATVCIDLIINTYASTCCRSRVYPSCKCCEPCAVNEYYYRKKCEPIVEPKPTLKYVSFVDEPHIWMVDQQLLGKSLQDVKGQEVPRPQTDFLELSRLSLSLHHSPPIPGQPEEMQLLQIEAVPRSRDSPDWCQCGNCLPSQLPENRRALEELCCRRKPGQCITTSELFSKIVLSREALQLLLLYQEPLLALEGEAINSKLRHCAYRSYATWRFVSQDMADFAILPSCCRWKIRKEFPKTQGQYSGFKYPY
In words: co-IP; rat amygdala tissue lysate (1 mM EDTA, 150 mM NaCl, 20 mM Tris pH 8.0, 10% glycerol); precipitated with anti-P2 × 7R antibody or IgG and Protein A/G-Sepharose beads at 4 °C; blots for P2 × 7R and integrin β3 (legend: integrin αv too); rats of the Sham, NP, NP + pseudostimulation and NP + rTMS ….

As for “integrin αvβ3 (rat (endogenous in amygdala tissue)) (complex)”, the binding entry is “binds”.

(Values after paper PMC11496354.)
